Data taken from PubChem BioAssay AID602313 (National Center for Advancing Translational Sciences (NCATS), 2012).
The whole screen tested about 390,000 compounds, of which about 760 (0.19%) were called active. Inconclusive means that the source gave no clear call. Such entries were picked first, then a sample of the others. The call rests on the fitted dose curve; in most records, active means well fitted inhibition curve with a large enough effect; inconclusive means small, poorly fitted or top-dose-only effect; inactive means flat fitted curve, though single readings scatter. A potency beside an inconclusive call is a rough fit, not a confirmed value.
Potency means the concentration at half of the fitted maximal effect.

Assay: qHTS for Inhibitors of Vif-A3F Interactions: qHTS; further: nearly all actives have a fitted effect of over 65% in size
Settings: HeLa A3F-eYFP + Vif (tagged APOBEC3F with the HIV-1 protein that degrades it), YFP fluorescence increase; series mostly up to 46.1 µM
Method in brief: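 HeLa cells stably expressing Vif plus C-terminally eYFP-tagged A3F were seeded, incubated overnight at 37 deg C, dosed with compound, incubated overnight again at 37 deg C. Yellow fluorescence (Ex 488/Em 500-530) reported blocked Vif-mediated A3F-eYFP degradation.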
For `Cc1cc2c(SCc3ccccc3Cl)nc(N)nc2nc1C`, the Potency was inconclusive: 35.5 µM [inhibitor, single point].
In the case of `O=C(c1ccc(O)c(Br)c1)c1cc(Br)ccc1O`, the Potency is reported as “inactive”.
In the case of `CC(=O)c1cccc(Nc2nc(-c3cccc(C)c3)nc3ccccc23)c1`, the Potency is reported as “inactive”.
In the case of `Cc1ccccc1C(=O)Nc1ccc(OCc2cc(=O)n3ccccc3n2)cc1`, the Potency is reported as “inactive”.
For `CCCn1c(N)c(C(=O)CSc2ncnc3sccc23)c(=O)n(C)c1=O`, the Potency was inconclusive: 25.1 µM [inhibitor, single point].
In the case of `O=C(N/N=C\C=C\c1ccco1)c1cncc(Br)c1`, the Potency is reported as inconclusive: 22.4 µM [inhibitor, single point].
With `CCn1c(SCC(=O)N2c3ccccc3Sc3ccccc32)nnc1-c1ccco1` the Potency was “inactive”.
For `Cc1c(-n2c(SCC(=O)N(C)C3CCS(=O)(=O)C3)nc3ccccc3c2=O)c(=O)n(-c2ccccc2)n1C` (stereo not given), the Potency was inconclusive: 0.891 µM [inhibitor, full curve, poor fit].
With `COc1ccc(-c2cc(C(F)(F)F)nc(SCC(=O)Nc3ccc4c(c3)OCO4)n2)cc1OC` the Potency was inconclusive: 22.4 µM [inhibitor, single point].
For `O=C(COC(=O)Cc1ccc(F)cc1)NC1CCCCCC1`, the Potency was inconclusive: 5.01 µM [inhibitor, single point].
In the case of `CCCN(CC1CC1)C(=S)NC(=O)c1ccccc1Br`, the Potency is reported as inconclusive: 10 µM [inhibitor, partial curve, poor fit].
In the case of `O=C(/C=C/c1cn(-c2ccccc2)nc1-c1cccnc1)c1ccco1`, the Potency is reported as “inactive”.
For `CNC(=S)NNC(=O)c1ccc(C(C)(C)C)cc1`, the Potency was inconclusive: 14.1 µM [inhibitor, single point].
With `O=C(/C=C/c1ccc(N2CCC(c3ccccc3)=N2)cc1)c1ccccc1` the Potency was inconclusive: 5.62 µM [inhibitor, single point].
With `Brc1ccc(C2=CC(c3cccs3)n3ncnc3N2)cc1` (stereo not given) the Potency was inconclusive: 25.1 µM [inhibitor, single point].
For `O=C(Nc1nc2n(n1)C(c1ccc(Cl)cc1)C=C(c1ccccc1)N2)c1ccco1` (stereo not given), the Potency was inconclusive: 35.5 µM [inhibitor, single point].
With `COCCOCCn1c(/C=C/c2ccccc2)nc2ccccc21` the Potency was “inactive”.
With `NNC(=S)NCCc1ccccc1` the Potency was inconclusive: 10 µM [inhibitor, partial curve, poor fit].
With `O=C(c1ccc(Cl)nc1)N1CCN(C/C=C/c2ccccc2)CC1` the Potency was inconclusive: 6.31 µM [inhibitor, single point].
For `Cc1snc2sc(C(=O)c3ccc(Br)cc3)c(N)c12`, the Potency was inconclusive: 22.4 µM [inhibitor, single point].
For `Cc1ccc(C(=O)OCC(=O)c2ccc(S(=O)(=O)N3CCCCC3)cc2)o1`, the Potency was inconclusive: 5.62 µM [inhibitor, single point].
In the case of `CC(C)N1C(=O)C2C(C(=O)NCc3ccccc3)C3C=CC2(O3)C1C(=O)NC(C)(C)C` (stereo not given), the Potency is reported as inconclusive: 6.31 µM [inhibitor, single point].
For `CCCn1c(C2CCCN2c2nc(-c3cccc(Br)c3)cs2)nc2cc(Cl)c(Cl)cc21` (stereo not given), the Potency was inconclusive: 22.4 µM [inhibitor, single point].
For `Cc1ccc(NC(=O)COC(=O)CCOc2ccccc2C)cc1`, the Potency was inconclusive: 0.631 µM [inhibitor, full curve, poor fit].
With `COc1ccc(CNC(=O)CCNC(=O)c2ccco2)cc1OC` the Potency was inconclusive: 1.78 µM [inhibitor, partial curve, poor fit].
With `O=C1C2C3C=CC(C2C(=O)N1c1ccccc1O)C1C2C(=O)N(c4ccccc4O)C(=O)C2C31` (stereo not given) the Potency was “inactive”.
For `CCN1CCc2nc3sc(C(=O)c4ccccc4)c(N)c3cc2C1`, the Potency was inconclusive: 35.5 µM [inhibitor, single point].
With `CCOc1ccc(C(=O)CCC(=O)NC2=NCCS2)cc1` the Potency was inconclusive: 20 µM [inhibitor, single point].
With `Cc1ccc(-c2nc(-c3cc4cccc(OCc5ccc(F)cc5)c4oc3=O)no2)cc1` the Potency was inconclusive: 20 µM [inhibitor, partial curve, poor fit].
In the case of `Cc1ccc(NC(=O)CSc2nc(-c3ccc(C(C)(C)C)cc3)nc3cc(=O)[nH]n23)cc1C`, the Potency is reported as inconclusive: 35.5 µM [inhibitor, single point].
In the case of `Cc1cc(C)cc(C(=O)NCC(=O)OCc2cc([N+](=O)[O-])cc3c2OCOC3)c1`, the Potency is reported as inconclusive: 2.51 µM [inhibitor, partial curve, poor fit].
For `O=C1ON=C(c2ccccc2)/C1=C/c1ccccc1`, the Potency was inconclusive: 11.2 µM [inhibitor, single point].
With `CC(=O)Nc1ccc(NC(=O)c2ccccc2Sc2ccc([N+](=O)[O-])cc2Cl)cc1` the Potency was inconclusive: 35.5 µM [inhibitor, single point].
With `CCOc1ccc2nc(N3CCCC(C(=O)NCCCOC)C3)sc2c1` (stereo not given) the Potency was “inactive”.
With `Cc1ccc(N(C(=O)c2nsc(Cl)c2Cl)C(C(=O)NC2CCCC2)c2ccc(O)cc2)cc1C` (stereo not given) the Potency was “inactive”.
For `CC1CCCC(NC(=O)CSc2n[nH]c(=O)n2Cc2ccccc2)C1C` (stereo not given), the Potency was inconclusive: 10 µM [inhibitor, partial curve, poor fit].
With `O=C1C(Cl)=C(NCCc2ccccc2)C(=O)c2ccccc21` the Potency was active: 8.91 µM.
For `CC1CN(S(=O)(=O)c2ccc(NC(=O)CCN3C(=O)c4ccccc4C3=O)cc2)CC(C)O1` (stereo not given), the Potency was inconclusive: 3.16 µM [inhibitor, full curve, poor fit].
With `CN(CC(=O)Nc1ccc(OC(F)(F)F)cc1)C(=O)/C=C/c1ccco1` the Potency was inconclusive: 35.5 µM [inhibitor, single point].
For `COc1cccc(CNC(=O)CCNS(=O)(=O)c2ccc(Br)s2)c1`, the Potency was “inactive”.
In the case of `O=C(NCc1cccc(C(F)(F)F)c1)c1ccc2c(c1)OCCO2`, the Potency is reported as inconclusive: 2.82 µM [inhibitor, single point].
For `COc1ccccc1NS(=O)(=O)c1cc(NC(=O)CN2C(=O)NC3(CCCC3)C2=O)ccc1C`, the Potency was inconclusive: 3.16 µM [inhibitor, single point].
With `S=c1[nH]nc(COc2ccccc2)n1/N=C/c1ccccc1Cl` the Potency was inconclusive: 3.16 µM [inhibitor, single point].
In the case of `FC(F)(F)c1cc(CCN2C(=S)NC[C@@H]2CC2CCCCC2)cc(C(F)(F)F)c1`, the Potency is reported as inconclusive: 28.2 µM [inhibitor, single point].
In the case of `Cc1cccc(CN2CCCC(C(=O)c3ccc4c5c(cccc35)CC4)C2)n1` (stereo not given), the Potency is reported as inconclusive: 22.4 µM [inhibitor, single point].
In the case of `COc1ccc(CCNC(=O)c2nnn(CC(=O)Nc3cccc(F)c3)c2N)cc1OC`, the Potency is reported as “inactive”.
In the case of `CC(=O)c1sc(C(=O)O)c(-c2ccco2)c1-c1ccco1`, the Potency is reported as inconclusive: 35.5 µM [inhibitor, single point].
With `Cc1cccc(N=C2NC(=O)/C(=C/c3cccs3)S2)c1` the Potency was inconclusive: 35.5 µM [inhibitor, single point].
In the case of `Cc1ccc2c(c1)S/C(=C/c1ccc[n+](C)c1)N2CCO`, the Potency is reported as inconclusive: 35.5 µM [inhibitor, single point].
For `CC(=O)c1sc2nsc(SCCN3CCCCC3)c2c1N`, the Potency was inconclusive: 35.5 µM [inhibitor, single point].
In the case of `Cc1ccc(N2C(N)=C(C#N)C(c3ccsc3)C3=C2CC(C)(C)CC3=O)cc1` (stereo not given), the Potency is reported as “inactive”.
In the case of `Cc1ccc2oc(=O)c3cnn(CC(=O)N4CCN(c5cc(Cl)ccc5C)CC4)c3c2c1`, the Potency is reported as “inactive”.
In the case of `O=C(OC1CCOC1=O)c1ccc(CO)cc1` (stereo not given), the Potency is reported as inconclusive: 3.16 µM [inhibitor, single point].
With `CN(C)/C=N/C(=S)Nc1ccc(Cl)cc1Cl` the Potency was inconclusive: 8.91 µM [inhibitor, partial curve].
With `C=CCn1cc(/C=N/Nc2nc3ccccc3[nH]2)c2ccccc21` the Potency was inconclusive: 2.82 µM [inhibitor, full curve, poor fit].
For `CCCC(=O)N=C1SC2CS(=O)(=O)CC2N1c1ccc(-c2nc3ccc(C)cc3s2)cc1` (stereo not given), the Potency was inconclusive: 35.5 µM [inhibitor, single point].
In the case of `CSc1nc2[nH]ncc2c(=O)[nH]1`, the Potency is reported as inconclusive: 35.5 µM [inhibitor, single point].
With `COc1cc(/C=C2\CCC/C(=C\c3ccc(O)c(OC)c3)C2=O)ccc1O` the Potency was inconclusive: 3.55 µM [inhibitor, single point].
With `O=C(CSc1ncccc1-c1nc2ccccc2[nH]1)N1CCc2ccccc21` the Potency was inconclusive: 3.55 µM [inhibitor, single point].
In the case of `CCOC(=O)c1ccc(N2C(=O)CC(Nc3ccc(O)cc3)C2=O)cc1` (stereo not given), the Potency is reported as inconclusive: 35.5 µM [inhibitor, single point].
For `Cc1cc[n+](-c2[nH]c(=O)sc2/C=N/NC([S-])=Nc2ccccc2)cc1`, the Potency was inconclusive: 17.8 µM [inhibitor, partial curve, poor fit].
In the case of `CCOC(=O)[C@H]1[C@H]2COc3ccc(C)cc3[C@@H]2N2C(=O)c3cc(OC)c(OC)cc3NC(=O)[C@@]12C`, the Potency is reported as “inactive”.
For `CCOc1ccc(C2c3[nH]c4ccccc4c3CCN2C(=O)Cc2cccc(OCC)c2OCC)cc1` (stereo not given), the Potency was “inactive”.
With `CC(=O)C1=C(C)NC(SCC(=O)c2ccc(Cl)c(Cl)c2)=C(C#N)C1c1ccco1` (stereo not given) the Potency was inconclusive: 35.5 µM [inhibitor, single point].
In the case of `Cc1cc(S(=O)(=O)N2CCCC2)ccc1OCC(=O)NC1CCCC1`, the Potency is reported as inconclusive: 7.08 µM [inhibitor, partial curve, poor fit].
